Measured values: the supplement of paper PMC10849652
This is one part of the list.

Protein sequences, listed by entry. Tags and fused reporters are not part of them. Lines headed by an entry give the natural chain unless they say otherwise; changes in a name come on top.
UniProt Q14676: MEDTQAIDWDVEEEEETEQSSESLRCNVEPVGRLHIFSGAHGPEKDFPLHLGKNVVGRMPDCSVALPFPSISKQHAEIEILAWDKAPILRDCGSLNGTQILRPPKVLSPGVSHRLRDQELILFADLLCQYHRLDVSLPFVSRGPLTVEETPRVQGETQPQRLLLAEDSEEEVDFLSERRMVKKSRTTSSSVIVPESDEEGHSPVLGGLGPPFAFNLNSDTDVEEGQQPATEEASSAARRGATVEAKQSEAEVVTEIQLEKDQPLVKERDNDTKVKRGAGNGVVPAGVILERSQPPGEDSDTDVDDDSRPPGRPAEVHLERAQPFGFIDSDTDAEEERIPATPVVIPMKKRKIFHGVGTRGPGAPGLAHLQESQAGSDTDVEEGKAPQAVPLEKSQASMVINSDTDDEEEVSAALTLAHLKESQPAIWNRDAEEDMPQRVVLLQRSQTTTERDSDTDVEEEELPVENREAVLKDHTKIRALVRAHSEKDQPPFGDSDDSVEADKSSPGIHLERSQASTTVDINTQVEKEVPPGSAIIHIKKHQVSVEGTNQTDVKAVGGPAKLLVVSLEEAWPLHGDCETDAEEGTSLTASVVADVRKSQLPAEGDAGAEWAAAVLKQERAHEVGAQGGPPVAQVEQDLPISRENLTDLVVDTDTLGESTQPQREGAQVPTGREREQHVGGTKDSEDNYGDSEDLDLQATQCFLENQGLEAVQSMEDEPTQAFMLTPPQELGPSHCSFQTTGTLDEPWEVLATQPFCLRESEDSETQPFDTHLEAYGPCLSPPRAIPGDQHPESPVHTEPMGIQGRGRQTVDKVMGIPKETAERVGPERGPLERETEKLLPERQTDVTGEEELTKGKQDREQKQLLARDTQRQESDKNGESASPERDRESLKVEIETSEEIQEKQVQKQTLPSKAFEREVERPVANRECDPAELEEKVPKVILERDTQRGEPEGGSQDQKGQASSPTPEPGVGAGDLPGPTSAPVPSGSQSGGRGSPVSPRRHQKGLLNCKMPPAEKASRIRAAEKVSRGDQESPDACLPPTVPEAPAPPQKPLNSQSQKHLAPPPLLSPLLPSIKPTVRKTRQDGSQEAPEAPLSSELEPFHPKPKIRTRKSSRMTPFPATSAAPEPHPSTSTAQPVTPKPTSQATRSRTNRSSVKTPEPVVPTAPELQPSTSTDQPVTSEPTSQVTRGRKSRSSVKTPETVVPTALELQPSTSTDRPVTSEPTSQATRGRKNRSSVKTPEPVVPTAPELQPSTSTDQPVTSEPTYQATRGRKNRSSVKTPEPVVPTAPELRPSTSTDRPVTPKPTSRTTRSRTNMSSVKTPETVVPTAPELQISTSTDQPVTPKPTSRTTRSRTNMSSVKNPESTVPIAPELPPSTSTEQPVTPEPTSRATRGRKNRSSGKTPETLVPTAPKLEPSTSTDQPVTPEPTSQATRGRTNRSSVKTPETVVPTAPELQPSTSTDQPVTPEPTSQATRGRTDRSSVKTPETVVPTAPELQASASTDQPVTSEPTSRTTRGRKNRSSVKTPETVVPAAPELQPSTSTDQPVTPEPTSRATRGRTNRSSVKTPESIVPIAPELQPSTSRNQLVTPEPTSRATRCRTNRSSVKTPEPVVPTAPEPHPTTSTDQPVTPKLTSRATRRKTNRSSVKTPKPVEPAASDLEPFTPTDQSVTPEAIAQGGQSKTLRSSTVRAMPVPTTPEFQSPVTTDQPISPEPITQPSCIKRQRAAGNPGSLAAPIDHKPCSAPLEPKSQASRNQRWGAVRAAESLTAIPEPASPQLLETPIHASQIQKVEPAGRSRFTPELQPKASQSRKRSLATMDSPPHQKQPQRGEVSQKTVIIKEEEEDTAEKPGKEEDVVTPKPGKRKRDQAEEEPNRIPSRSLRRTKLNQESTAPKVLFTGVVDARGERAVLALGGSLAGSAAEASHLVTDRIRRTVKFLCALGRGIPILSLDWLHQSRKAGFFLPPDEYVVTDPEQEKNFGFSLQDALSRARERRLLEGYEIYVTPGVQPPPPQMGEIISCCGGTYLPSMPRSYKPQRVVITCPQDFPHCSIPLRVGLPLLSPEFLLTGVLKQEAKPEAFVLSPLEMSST
UniProt Q9ULK4: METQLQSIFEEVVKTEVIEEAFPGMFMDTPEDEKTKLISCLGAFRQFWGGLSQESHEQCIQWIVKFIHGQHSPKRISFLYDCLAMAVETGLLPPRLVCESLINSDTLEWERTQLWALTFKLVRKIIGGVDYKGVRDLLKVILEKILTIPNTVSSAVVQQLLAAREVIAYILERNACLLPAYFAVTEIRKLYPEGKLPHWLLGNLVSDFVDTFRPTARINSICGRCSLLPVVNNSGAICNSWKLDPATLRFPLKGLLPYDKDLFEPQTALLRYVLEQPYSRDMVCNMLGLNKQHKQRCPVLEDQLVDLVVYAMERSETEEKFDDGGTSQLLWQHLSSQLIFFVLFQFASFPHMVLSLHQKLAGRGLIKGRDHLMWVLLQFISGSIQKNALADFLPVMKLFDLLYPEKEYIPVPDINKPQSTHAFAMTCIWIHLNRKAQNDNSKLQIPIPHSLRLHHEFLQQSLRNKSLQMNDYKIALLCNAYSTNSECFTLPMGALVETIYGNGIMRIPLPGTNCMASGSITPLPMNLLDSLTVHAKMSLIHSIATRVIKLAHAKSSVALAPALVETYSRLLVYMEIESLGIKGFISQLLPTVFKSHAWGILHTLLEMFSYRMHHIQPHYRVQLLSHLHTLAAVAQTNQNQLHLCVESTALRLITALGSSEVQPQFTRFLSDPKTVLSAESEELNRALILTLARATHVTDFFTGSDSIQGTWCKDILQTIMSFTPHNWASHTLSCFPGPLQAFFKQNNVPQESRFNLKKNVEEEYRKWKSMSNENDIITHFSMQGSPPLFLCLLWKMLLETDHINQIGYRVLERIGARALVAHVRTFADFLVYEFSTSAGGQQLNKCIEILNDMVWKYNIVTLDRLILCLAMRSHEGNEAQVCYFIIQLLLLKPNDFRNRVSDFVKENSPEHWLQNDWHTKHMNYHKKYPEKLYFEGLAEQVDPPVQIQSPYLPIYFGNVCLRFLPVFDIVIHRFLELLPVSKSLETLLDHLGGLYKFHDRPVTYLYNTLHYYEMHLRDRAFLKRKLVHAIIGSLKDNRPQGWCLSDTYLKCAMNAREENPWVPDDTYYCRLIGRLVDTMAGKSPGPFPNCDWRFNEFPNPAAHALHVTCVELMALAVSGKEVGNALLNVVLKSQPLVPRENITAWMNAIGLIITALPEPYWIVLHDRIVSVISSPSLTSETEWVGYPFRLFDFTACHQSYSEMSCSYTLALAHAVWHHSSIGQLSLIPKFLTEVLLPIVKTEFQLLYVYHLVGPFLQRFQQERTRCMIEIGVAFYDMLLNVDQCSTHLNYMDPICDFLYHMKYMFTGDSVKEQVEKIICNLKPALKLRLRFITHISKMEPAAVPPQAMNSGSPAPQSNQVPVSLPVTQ
UniProt Q14696: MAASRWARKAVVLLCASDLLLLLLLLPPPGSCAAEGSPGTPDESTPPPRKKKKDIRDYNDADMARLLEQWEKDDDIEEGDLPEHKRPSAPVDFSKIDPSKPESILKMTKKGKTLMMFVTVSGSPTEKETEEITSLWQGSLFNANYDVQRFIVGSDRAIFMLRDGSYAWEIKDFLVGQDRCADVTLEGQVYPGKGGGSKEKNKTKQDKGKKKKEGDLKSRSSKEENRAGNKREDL
UniProt Q96AQ8: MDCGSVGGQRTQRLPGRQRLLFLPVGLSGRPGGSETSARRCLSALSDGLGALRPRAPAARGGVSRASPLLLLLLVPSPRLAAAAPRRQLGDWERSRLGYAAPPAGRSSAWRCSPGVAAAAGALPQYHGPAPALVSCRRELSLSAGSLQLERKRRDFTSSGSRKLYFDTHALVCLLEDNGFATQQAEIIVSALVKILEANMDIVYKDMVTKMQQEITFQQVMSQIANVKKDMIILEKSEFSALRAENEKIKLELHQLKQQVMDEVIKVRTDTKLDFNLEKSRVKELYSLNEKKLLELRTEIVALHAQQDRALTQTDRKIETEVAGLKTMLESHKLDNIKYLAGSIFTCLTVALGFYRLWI
UniProt C9JP00: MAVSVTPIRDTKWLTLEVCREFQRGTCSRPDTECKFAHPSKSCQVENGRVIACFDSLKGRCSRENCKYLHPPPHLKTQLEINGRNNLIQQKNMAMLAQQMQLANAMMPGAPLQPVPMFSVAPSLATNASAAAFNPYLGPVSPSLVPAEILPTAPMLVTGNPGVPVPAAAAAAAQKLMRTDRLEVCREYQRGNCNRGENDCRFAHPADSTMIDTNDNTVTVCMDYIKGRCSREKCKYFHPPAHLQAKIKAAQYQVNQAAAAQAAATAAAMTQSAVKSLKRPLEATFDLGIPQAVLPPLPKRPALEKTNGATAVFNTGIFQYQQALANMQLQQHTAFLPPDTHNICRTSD
UniProt Q86V88: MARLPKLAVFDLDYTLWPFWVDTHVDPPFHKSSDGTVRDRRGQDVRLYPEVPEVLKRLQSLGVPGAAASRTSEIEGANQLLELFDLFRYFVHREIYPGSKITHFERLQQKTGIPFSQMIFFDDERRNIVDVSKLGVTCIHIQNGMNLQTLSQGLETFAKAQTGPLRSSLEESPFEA
UniProt P55081: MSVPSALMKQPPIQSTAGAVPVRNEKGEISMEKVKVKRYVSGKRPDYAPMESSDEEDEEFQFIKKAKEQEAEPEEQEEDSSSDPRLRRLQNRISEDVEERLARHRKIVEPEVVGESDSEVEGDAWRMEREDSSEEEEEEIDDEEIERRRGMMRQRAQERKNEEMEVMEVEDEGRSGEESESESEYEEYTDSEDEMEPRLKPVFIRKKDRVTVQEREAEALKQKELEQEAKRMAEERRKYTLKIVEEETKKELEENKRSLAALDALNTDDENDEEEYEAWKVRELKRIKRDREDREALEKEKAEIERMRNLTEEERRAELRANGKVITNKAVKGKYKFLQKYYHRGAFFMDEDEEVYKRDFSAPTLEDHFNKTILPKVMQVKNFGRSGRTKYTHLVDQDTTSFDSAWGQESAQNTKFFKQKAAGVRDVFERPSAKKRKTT
UniProt Q14814: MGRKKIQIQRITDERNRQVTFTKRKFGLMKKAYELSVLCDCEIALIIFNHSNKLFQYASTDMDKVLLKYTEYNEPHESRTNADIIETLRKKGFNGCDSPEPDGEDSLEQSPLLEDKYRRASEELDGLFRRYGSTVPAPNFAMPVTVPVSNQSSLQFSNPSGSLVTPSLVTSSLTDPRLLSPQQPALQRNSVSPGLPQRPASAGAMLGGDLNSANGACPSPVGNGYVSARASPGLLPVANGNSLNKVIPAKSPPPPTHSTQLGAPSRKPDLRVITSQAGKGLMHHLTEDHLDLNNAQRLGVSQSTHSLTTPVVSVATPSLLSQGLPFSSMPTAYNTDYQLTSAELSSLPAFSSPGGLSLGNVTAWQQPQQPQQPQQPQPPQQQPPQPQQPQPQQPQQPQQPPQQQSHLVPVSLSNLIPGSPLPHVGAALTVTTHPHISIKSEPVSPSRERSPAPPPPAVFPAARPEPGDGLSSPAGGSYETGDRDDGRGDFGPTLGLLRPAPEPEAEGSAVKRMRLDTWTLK
UniProt P40926: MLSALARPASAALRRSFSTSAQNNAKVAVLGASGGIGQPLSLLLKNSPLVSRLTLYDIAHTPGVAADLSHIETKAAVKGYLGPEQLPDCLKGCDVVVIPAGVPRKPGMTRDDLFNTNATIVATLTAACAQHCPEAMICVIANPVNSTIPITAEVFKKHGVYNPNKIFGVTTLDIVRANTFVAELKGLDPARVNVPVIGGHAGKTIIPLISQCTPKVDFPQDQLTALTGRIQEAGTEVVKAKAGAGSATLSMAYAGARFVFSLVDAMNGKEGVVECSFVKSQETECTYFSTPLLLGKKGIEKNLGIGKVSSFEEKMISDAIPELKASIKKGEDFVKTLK
UniProt P43121, whole entry, looked up: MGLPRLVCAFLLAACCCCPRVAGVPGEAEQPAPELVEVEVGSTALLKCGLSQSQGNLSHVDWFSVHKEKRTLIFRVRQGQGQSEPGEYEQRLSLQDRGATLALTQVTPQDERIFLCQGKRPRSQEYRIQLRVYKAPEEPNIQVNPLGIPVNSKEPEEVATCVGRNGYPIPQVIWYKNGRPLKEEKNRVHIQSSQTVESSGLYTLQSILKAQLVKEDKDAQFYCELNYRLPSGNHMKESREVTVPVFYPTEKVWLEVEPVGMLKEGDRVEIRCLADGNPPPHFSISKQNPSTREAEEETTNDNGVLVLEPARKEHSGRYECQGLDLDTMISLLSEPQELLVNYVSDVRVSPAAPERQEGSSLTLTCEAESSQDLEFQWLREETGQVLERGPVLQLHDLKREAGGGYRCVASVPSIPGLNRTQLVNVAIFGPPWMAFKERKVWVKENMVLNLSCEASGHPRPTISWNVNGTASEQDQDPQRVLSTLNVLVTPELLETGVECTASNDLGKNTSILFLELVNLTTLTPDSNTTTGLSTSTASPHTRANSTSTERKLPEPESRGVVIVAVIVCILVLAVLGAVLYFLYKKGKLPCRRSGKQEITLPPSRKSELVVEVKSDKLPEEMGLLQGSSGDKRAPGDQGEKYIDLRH

Key:
Assay in all cases: log2 fold change, soluble protein after heating vs DMSO (PISA); higher = thermal stabilisation; K562 lysate, 10 uM; active = over 0.2 and 3.5 SD of the protein, either way, in both replicates (recomputed)
vemurafenib = compound: CCCS(=O)(=O)Nc1ccc(F)c(C(=O)c2c[nH]c3ncc(-c4ccc(Cl)cc4)cc23)c1F [vemurafenib]
How it was run: (§1)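 K562 pellets were dounce-homogenised in PBS pH 7.4 containing 1 mM MgCl2, and the crude extract, at 1 mg/mL protein, was exposed to 10 μM compound for 30 min. Aliquots were heated for 3 min across 48°C-58°C, pooled, brought to 0.5% NP-40 at 4°C and spun at 21,000xg for 90 min, with the supernatant taken as soluble protein. TMTpro 16plex LC-MS/MS with equalised channel sums quantified that protein. Values are log-two fold changes in thermal stability relative to solvent controls, taken from duplicates.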

[1] = compound: CCCS(=O)(=O)Nc1ccc(F)c(C(=O)c2c[nH]c3ncc(Cl)cc23)c1F
How it was run: as §1

barasertib = compound: CCN(CCCOc1ccc2c(Nc3cc(CC(=O)Nc4cccc(F)c4)[nH]n3)ncnc2c1)CCOP(=O)(O)O [barasertib]
How it was run: as §1

[2] = compound: CC[C@@H]1C(=O)N(C)c2cnc(Nc3ccc(C(=O)NC4CCN(C)CC4)cc3OC)nc2N1C1CCCC1
How it was run: as §1

volasertib = compound: CC[C@@H]1C(=O)N(C)c2cnc(Nc3ccc(C(=O)N[C@H]4CC[C@H](N5CCN(CC6CC6)CC5)CC4)cc3OC)nc2N1C(C)C [volasertib]
How it was run: as §1

[3] = compound: CCn1c(C(=O)N(C2CC2)C2CC2)cc2c3c(ncn3C)c(Nc3cc(C)n(C)n3)nc21
How it was run: as §1

[4] = compound: CCn1cc(-c2ccnc3[nH]c(-c4cccc(CN(C)C)c4)cc23)c(-c2ccc(NC(=O)N(C)C)cc2)n1
How it was run: as §1

[5] = compound: CN1CCC(CNc2ccc3ncc(-c4cccc(OC(F)(F)F)c4)n3n2)CC1
How it was run: as §1

saracatinib = compound: CN1CCN(CCOc2cc(OC3CCOCC3)c3c(Nc4c(Cl)ccc5c4OCO5)ncnc3c2)CC1 [saracatinib]
How it was run: as §1

sotrastaurin = compound: CN1CCN(c2nc(C3=C(c4c[nH]c5ccccc45)C(=O)NC3=O)c3ccccc3n2)CC1 [sotrastaurin]
How it was run: as §1

alvocidib = compound: CN1CC[C@H](c2c(O)cc(O)c3c(=O)cc(-c4ccccc4Cl)oc23)[C@H](O)C1 [alvocidib]
How it was run: as §1

Tubastatin A = compound: CN1CCc2c(c3ccccc3n2Cc2ccc(C(=O)NO)cc2)C1 [Tubastatin A]
How it was run: as §1

[6] = compound: CNC(=O)C1=CC=CC=C1NC2=NC(=NC=C2Cl)NC3=C(C=C(C=C3)N4CCOCC4)OC
How it was run: as §1

defactinib = compound: CNC(=O)c1ccc(Nc2ncc(C(F)(F)F)c(NCc3nccnc3N(C)S(C)(=O)=O)n2)cc1 [defactinib]
How it was run: as §1

[7] = compound: CNc1nc(-c2ccc3c(N)n[nH]c3c2)cc(N2C[C@@H](C(=O)NC3CCCCC3)CC[C@H]2C)n1
How it was run: as §1

encorafenib = compound: COC(=O)N[C@@H](C)CNc1nccc(-c2cn(C(C)C)nc2-c2cc(Cl)cc(NS(C)(=O)=O)c2F)n1 [encorafenib]
How it was run: as §1

[8] = compound: COC(=O)[C@H](CCSC)NC(=O)C1=C(C=C(C=C1)NC[C@H](CS)N)C2=CC=CC=C2
How it was run: as §1

alisertib = compound: COc1cc(Nc2ncc3c(n2)-c2ccc(Cl)cc2C(c2c(F)cccc2OC)=NC3)ccc1C(=O)O [alisertib]
How it was run: as §1

[9] = compound: COc1cc2nc(-c3cc(F)ccc3O)nc(N[C@@H]3CNC[C@H]3C(C)(C)O)c2cc1OC
How it was run: as §1

gefitinib = compound: COc1cc2ncnc(Nc3ccc(F)c(Cl)c3)c2cc1OCCCN1CCOCC1 [gefitinib]
How it was run: as §1

Measured: log2 fold change

MDC1 (UniProt Q14676)
inactive: vemurafenib 0.016 | [1] 0.034 | barasertib -0.002 | [2] 0.02 | volasertib -0.023 | [3] -0.052 | [4] -0.011 | [5] 0.013 | saracatinib -0.001 | sotrastaurin 0.043 | alvocidib 0 | Tubastatin A 0.047 | [6] -0.007 | defactinib -0.011 | [7] 0.009 | encorafenib 0.011 | [8] 0.051 | alisertib 0.002 | [9] 0.027 | gefitinib 0.008

MED23 (UniProt Q9ULK4)
inactive: vemurafenib 0.018 | [1] 0.004 | barasertib -0.016 | [2] -0.004 | volasertib -0.041 | [3] 0.029 | [4] -0.027 | [5] -0.015 | saracatinib 0.041 | sotrastaurin -0.006 | alvocidib -0.013 | Tubastatin A -0.074 | [6] 0.033 | defactinib 0.012 | [7] -0.021 | encorafenib -0.008 | [8] -0.003 | alisertib 0.013 | [9] -0.01 | gefitinib 0.026

MESD (UniProt Q14696)
inactive: vemurafenib -0.117 | [1] -0.018 | barasertib -0.026 | [2] -0.075 | volasertib 0.024 | [3] 0.037 | [4] -0.073 | [5] 0.067 | saracatinib -0.017 | sotrastaurin 0.008 | alvocidib 0.004 | Tubastatin A 0 | [6] 0.018 | defactinib 0.019 | [7] -0.076 | encorafenib 0.032 | [8] -0.03 | alisertib -0.008 | [9] 0.019 | gefitinib 0.018

MECP2 isoform 2 (UniProt P51608)
inactive: vemurafenib 0.04 | [1] 0.009 | barasertib -0.093 | [2] 0.051 | volasertib 0 | [3] -0.039 | [4] -0.333 | [5] 0.072 | saracatinib -0.07 | sotrastaurin 0.046 | alvocidib -0.045 | Tubastatin A 0.04 | [6] 0.032 | defactinib -0.026 | [7] 0.052 | encorafenib 0.089 | [8] 0.01 | alisertib -0.039 | [9] -0.017 | gefitinib -0.021

MCUR1 (UniProt Q96AQ8)
inactive: vemurafenib 0.019 | [1] 0.023 | barasertib -0.014 | [2] -0.002 | volasertib 0.041 | [3] -0.008 | [4] -0.022 | [5] -0.017 | saracatinib 0.024 | sotrastaurin -0.036 | alvocidib 0.012 | Tubastatin A 0.172 | [6] -0.03 | defactinib -0.022 | [7] 0.04 | encorafenib -0.005 | [8] 0.026 | alisertib 0.063 | [9] 0.094 | gefitinib 0.003

MCMBP (UniProt Q9BTE3)
inactive: vemurafenib -0.029 | [1] 0.019 | barasertib -0.007 | [2] 0.006 | volasertib -0.026 | [3] 0.043 | [4] 0.035 | [5] -0.032 | saracatinib 0.02 | sotrastaurin 0.015 | alvocidib 0.035 | Tubastatin A -0.078 | [6] 0.029 | defactinib 0.041 | [7] -0.003 | encorafenib -0.001 | [8] 0.074 | alisertib 0.005 | [9] 0 | gefitinib 0.011

MBNL1 (UniProt C9JP00)
inactive: vemurafenib 0.018 | [1] 0.051 | barasertib 0.04 | [2] 0.216 | volasertib -0.008 | [3] -0.03 | [4] -0.04 | [5] 0.032 | saracatinib 0.027 | sotrastaurin -0.029 | alvocidib 0.018 | Tubastatin A 0.051 | [6] -0.063 | defactinib -0.039 | [7] 0.126 | encorafenib 0.012 | [8] -0.135 | alisertib 0.002 | [9] 0.052 | gefitinib 0.028

MDP1 (UniProt Q86V88)
inactive: vemurafenib -0.021 | [1] -0.012 | barasertib -0.003 | [2] 0.015 | volasertib 0.058 | [3] -0.012 | [4] 0.18 | [5] -0.124 | saracatinib 0.003 | sotrastaurin 0.023 | alvocidib -0.015 | Tubastatin A 0.035 | [6] -0.019 | defactinib -0.01 | [7] -0.021 | encorafenib 0.004 | [8] -0.069 | alisertib -0.02 | [9] 0.006 | gefitinib -0.042

Reprinted from the results shown (four entries):
MCUR1 (UniProt Q96AQ8)
inactive: vemurafenib 0.019 | [1] 0.023 | barasertib -0.014 | [2] -0.002 | volasertib 0.041 | [3] -0.008 | [4] -0.022 | [5] -0.017 | saracatinib 0.024 | sotrastaurin -0.036 | alvocidib 0.012 | Tubastatin A 0.172 | [6] -0.03 | defactinib -0.022 | [7] 0.04 | encorafenib -0.005 | [8] 0.026 | alisertib 0.063 | [9] 0.094 | gefitinib 0.003

MCMBP (UniProt Q9BTE3)
inactive: vemurafenib -0.029 | [1] 0.019 | barasertib -0.007 | [2] 0.006 | volasertib -0.026 | [3] 0.043 | [4] 0.035 | [5] -0.032 | saracatinib 0.02 | sotrastaurin 0.015 | alvocidib 0.035 | Tubastatin A -0.078 | [6] 0.029 | defactinib 0.041 | [7] -0.003 | encorafenib -0.001 | [8] 0.074 | alisertib 0.005 | [9] 0 | gefitinib 0.011

MBNL1 (UniProt C9JP00)
inactive: vemurafenib 0.018 | [1] 0.051 | barasertib 0.04 | [2] 0.216 | volasertib -0.008 | [3] -0.03 | [4] -0.04 | [5] 0.032 | saracatinib 0.027 | sotrastaurin -0.029 | alvocidib 0.018 | Tubastatin A 0.051 | [6] -0.063 | defactinib -0.039 | [7] 0.126 | encorafenib 0.012 | [8] -0.135 | alisertib 0.002 | [9] 0.052 | gefitinib 0.028

MDP1 (UniProt Q86V88)
inactive: vemurafenib -0.021 | [1] -0.012 | barasertib -0.003 | [2] 0.015 | volasertib 0.058 | [3] -0.012 | [4] 0.18 | [5] -0.124 | saracatinib 0.003 | sotrastaurin 0.023 | alvocidib -0.015 | Tubastatin A 0.035 | [6] -0.019 | defactinib -0.01 | [7] -0.021 | encorafenib 0.004 | [8] -0.069 | alisertib -0.02 | [9] 0.006 | gefitinib -0.042

More records follow:

MFAP1 (UniProt P55081)
inactive: vemurafenib 0.006 | [1] -0.039 | barasertib -0.032 | [2] 0.137 | volasertib 0.047 | [3] 0.012 | [4] -0.038 | [5] 0.043 | saracatinib -0.008 | sotrastaurin -0.045 | alvocidib -0.036 | Tubastatin A -0.041 | [6] 0.03 | defactinib -0.031 | [7] -0.009 | encorafenib 0.034 | [8] -0.022 | alisertib 0.026 | [9] -0.009 | gefitinib 0.067

MED16 (UniProt Q9Y2X0)
inactive: vemurafenib -0.059 | [1] 0.008 | barasertib -0.113 | [2] -0.04 | volasertib -0.036 | [3] 0.056 | [4] 0.177 | [5] -0.189 | saracatinib -0.014 | sotrastaurin -0.018 | alvocidib 0.01 | Tubastatin A -0.093 | [6] 0.02 | defactinib -0.014 | [7] 0.004 | encorafenib -0.011 | [8] 0.038 | alisertib -0.015 | [9] -0.004 | gefitinib 0.019

METTL16 (UniProt Q86W50)
inactive: vemurafenib 0.014 | [1] 0.017 | barasertib 0.042 | [2] -0.005 | volasertib -0.015 | [3] -0.001 | [4] 0.011 | [5] -0.018 | saracatinib -0.017 | sotrastaurin 0.017 | alvocidib 0.047 | Tubastatin A 0.021 | [6] 0.061 | defactinib 0.001 | [7] 0.037 | encorafenib 0.028 | [8] -0.018 | alisertib -0.013 | [9] 0.026 | gefitinib -0.009

MEF2D (UniProt Q14814)
inactive: vemurafenib 0.004 | [1] 0.038 | barasertib -0.018 | [2] 0.032 | volasertib -0.009 | [3] -0.034 | [4] 0.02 | [5] 0.046 | saracatinib 0.032 | sotrastaurin 0.032 | alvocidib -0.07 | Tubastatin A 0.029 | [6] -0.01 | defactinib 0.037 | [7] 0.05 | encorafenib 0.074 | [8] -0.138 | alisertib 0.136 | [9] 0.007 | gefitinib -0.019

MBD2 (UniProt Q9UBB5)
inactive: vemurafenib -0.014 | [1] 0.016 | barasertib -0.009 | [2] 0.059 | volasertib -0.021 | [3] 0.073 | [4] -0.005 | [5] -0.007 | saracatinib -0.036 | sotrastaurin -0.089 | alvocidib 0.026 | Tubastatin A -0.06 | [6] 0.001 | defactinib 0.022 | [7] 0.083 | encorafenib 0.013 | [8] -0.061 | alisertib 0.031 | [9] 0.024 | gefitinib -0.016

MDN1 (UniProt Q9NU22)
inactive: vemurafenib 0.023 | [1] 0.016 | barasertib 0.034 | [2] -0.033 | volasertib -0.066 | [3] -0.023 | [4] -0.175 | [5] 0.099 | saracatinib 0.028 | sotrastaurin 0.016 | alvocidib 0.001 | Tubastatin A -0.057 | [6] -0.004 | defactinib 0.054 | [7] -0.012 | encorafenib 0.018 | [8] 0.095 | alisertib -0.001 | [9] 0.024 | gefitinib 0.015

MDH2 (UniProt P40926)
inactive: vemurafenib -0.017 | [1] 0.023 | barasertib -0.018 | [2] 0.007 | volasertib 0.013 | [3] -0.01 | [4] 0.03 | [5] -0.01 | saracatinib -0.006 | sotrastaurin 0.011 | alvocidib 0.021 | Tubastatin A 0.02 | [6] -0.019 | defactinib -0.009 | [7] -0.016 | encorafenib -0.029 | [8] -0.021 | alisertib 0.012 | [9] -0.035 | gefitinib 0.005

MCAM (UniProt P43121)
inactive: vemurafenib 0.038 | [1] 0.021 | barasertib 0.019 | [2] 0.165 | volasertib 0.018 | [3] -0.031 | [4] -0.07 | [5] 0.082 | saracatinib -0.009 | sotrastaurin -0.006 | alvocidib -0.024 | Tubastatin A 0.052 | [6] 0.006 | defactinib -0.041 | [7] 0.052 | encorafenib -0.031 | [8] -0.016 | alisertib -0.003 | [9] 0.022 | gefitinib 0.019
